No constants are given. Whether binding was seen depends on the method and setting. In cells and extracts the contact can be indirect. Binding can be weak; no strength is given. Where a sequence is shown, tags or fusion partners need not be part of it.
Target: DS1-YFP^N fusion protein (rice (Oryza sativa))
Assay: split reporter; BiFC: DS1-YFP^N and OsARF11-YFP^C transiently expressed in tobacco (Nicotiana benthamiana); YFP fluorescence in the nucleus

- binding: binds
B1: OsARF11-YFP^C fusion protein (protein, UniProt Q8S983 1-955)
chain: MASSQEKAKTGVLRNAAALLDEMQLMGETQGAKKVINSELWHACAGPLVCLPQRGSLVYYFPQGHSEQVAATTRKIPNSRIPNYPNLPSQLLCQVHNITLHADKDTDEVYAQMTLQPVNSETDVFPIPTLGAYTKSKHPTEYFCKNLTASDTSTHGGFSVPRRAAEKLFPQLDYSMQPPNQELIVRDLHDNMWTFRHIYRGQPKRHLLTTGWSLFVGAKRLKAGDSVLFIRDEKSQLLLGVRRATRQQTMLSSSVLSTDSMHIGVLAAAAHAASSGSSFTIYYNPRTSPSPFVIPVARYNKATYMQPSVGMRFAMMFETEESSKRRYTGTVVGISDYDPMRWPNSKWRNLQVEWDEHGYGERPERVSIWDIETPENTLVFPSSTLNSKRQCLPGYGVSVPGMEIGSANMSSFPRAQGNPYGSLQHIPAVGSELAIMLLNQSGQTLGSPLSFHQSSYSSIIQNVKQNYIPPLTVSTSACLTKQESLPSDDAQHQFHMANMQNGDLEGSEVQPVIDSISESKLNATSRDPRNTDSYTSRSTSEQNSKGEPRGKTRRSKKGLPHKTVSEKSDLSSAPSWICDNQQVGLESKLVGCDEQVNCGNIEDSSGALTQGNFVGQPHGHQVEQKGVLSPPKVESSKSPDGGKSVNSFPNQGCFSQFIDGLDWMTQPSYYQDSNVIQPAGVSENIFSSSADIPPSMIADTMETFQASCLSDCLPNSIQEFISSPDLNSLTFLSPDMQNLEVQLQHDGSNLPSTSNSFVQMSFSEESASQSANLSGLHMESTHRSINTTSCSQPMSTGGFDAGMYSKLPRLKESQILSLPEIHTNSMGTSACSMDATEYSLDRSAKPMKPPVRTYTKVQKQGSVGRSIDVTGFRNYHELRSAIACMFGLQGKLEHPGSSEWKLVYVDYENDVLLVGDDPWEEFINCVRCIRILSPSEVQQMSENGMHVLNDCIQAA

— article PMC6082143
